Laboratory results as given in patent US7906486B2, “Method of treating or preventing tissue deterioration, injury or damage due to disease of mucosa” (SciClone Pharmaceuticals, Inc., priority 2007, dated 2011).
Values joined by “and” are separate entries in the source; they are usually repeats but may differ in a detail not shown here. Identical values can stand only once. Further values from the same series stand in other lists.

Test: Weights and survival (Example 4, SCI-04)
Format: in vivo, Syrian Golden Hamsters
Set-up: unit not given here
Settings: individual animals
Procedure: All animals were weighed daily and their survival recorded, in order to assess possible differences in animal weight among treatment groups as an indication for mucositis severity and/or possible toxicity resulting from the treatments.
There were no significant differences in weight changes between study groups. The mean daily percent weight change data was evaluated. The saline treated control hamsters gained an average of 46.5% of their starting weight during the study. Hamsters in the group receiving SCV-07 at 10 μg/kg on days −1 to 20 gained an average of 51.3% of their starting weight during the study. Hamsters in the group receiving SCV-07 at 100 μg/kg on days −1 to 20 gained an average of 46.7% of their starting weight during the study. Hamsters in the group receiving SCV-07 at 1 mg/kg from day −1 to day 20 gained an average of 48.8% of their starting weight during the study. The significance of these differences was evaluated by calculating the area-under-the-curve (AUC) for the weight gain of each animal, and then comparing the different treatment groups using a One-Way ANOVA test.

In the case of `N[C@H](CCC(=O)N[C@@H](Cc1c[nH]c2ccccc12)C(=O)O)C(=O)O` [SCV-07, γ-D-glutamyl-L-tryptophan], the Animal weight (Group 2 (SCV-07 10 μg/kg, day −1 to day 20), day 0) is reported as 72 and 78 and 90 and 92, the Animal weight (Group 2 (SCV-07 10 μg/kg, day −1 to day 20), day 1) is reported as 70 and 75 and 87 and 90 and the Animal weight (Group 2 (SCV-07 10 μg/kg, day −1 to day 20), day 2) is reported as 90 and 95. For the same molecule, the Animal weight (Group 2 (SCV-07 10 μg/kg, day −1 to day 20), day 3) was 81 and 91 and 96, the Animal weight (Group 2 (SCV-07 10 μg/kg, day −1 to day 20), day 4) was 76 and 85 and 93 and 99 and the Animal weight (Group 2 (SCV-07 10 μg/kg, day −1 to day 20), day 5) was 81 and 85 and 94 and 100. The Animal weight (Group 2 (SCV-07 10 μg/kg, day −1 to day 20), day 6) was 79 and 89 and 94 and 102, the Animal weight (Group 2 (SCV-07 10 μg/kg, day −1 to day 20), day 7) was 89 and 97 and 105 and the Animal weight (Group 2 (SCV-07 10 μg/kg, day −1 to day 20), day 8) was 98. For the same molecule, the Animal weight (Group 2 (SCV-07 10 μg/kg, day −1 to day 20), day 9) was 92 and 98, the Animal weight (Group 2 (SCV-07 10 μg/kg, day −1 to day 20), day 10) was 94 and 100 and 110 and the Animal weight (Group 2 (SCV-07 10 μg/kg, day −1 to day 20), day 11) was 87 and 95 and 100. For the same molecule, the Animal weight (Group 2 (SCV-07 10 μg/kg, day −1 to day 20), day 12) was 88 and 94 and 97 and 113, the Animal weight (Group 2 (SCV-07 10 μg/kg, day −1 to day 20), day 13) was 88 and 95 and 114 and the Animal weight (Group 2 (SCV-07 10 μg/kg, day −1 to day 20), day 14) was 90 and 96 and 114. The Animal weight (Group 2 (SCV-07 10 μg/kg, day −1 to day 20), day 15) was 99 and 132 and 117 and 109 and 93 and 112 and 90 and 97 and 98 and 115, the Animal weight (Group 2 (SCV-07 10 μg/kg, day −1 to day 20), day 16) was 100 and 132 and 119 and 109 and 92 and 112 and 90 and 96 and 99 and 117 and the Animal weight (Group 2 (SCV-07 10 μg/kg, day −1 to day 20), day 17) was 103 (2×) and 136 and 123 and 112 and 96 (2×) and 117 and 100 and 121. The Animal weight (Group 2 (SCV-07 10 μg/kg, day −1 to day 20), day 18) was 103 and 137 and 125 and 113 and 98 and 117 and 97 and 102 and 104 and 122, the Animal weight (Group 2 (SCV-07 10 μg/kg, day −1 to day 20), day 19) was 105 and 138 and 125 and 113 and 100 and 118 and 99 and 101 and 103 and 123 and the Animal weight (Group 2 (SCV-07 10 μg/kg, day −1 to day 20), day 20) was 104 (2×) and 137 and 127 and 115 and 100 and 118 and 101 and 109 and 123. The Animal weight (Group 2 (SCV-07 10 μg/kg, day −1 to day 20), day 21) was 108 and 141 and 130 and 117 and 103 and 121 and 105 (2×) and 106 and 127, the Animal weight (Group 2 (SCV-07 10 μg/kg, day −1 to day 20), day 22) was 110 and 144 and 133 and 120 and 104 (2×) and 122 and 108 and 107 and 131 and the Animal weight (Group 2 (SCV-07 10 μg/kg, day −1 to day 20), day 23) was 110 and 143 and 133 and 121 and 104 and 123 and 106 and 108 (2×) and 129. For the same molecule, the Animal weight (Group 2 (SCV-07 10 μg/kg, day −1 to day 20), day 24) was 114 and 148 and 139 and 123 and 105 and 126 and 109 and 111 (2×) and 134, the Animal weight (Group 2 (SCV-07 10 μg/kg, day −1 to day 20), day 25) was 115 and 150 and 139 and 124 and 108 and 126 and 113 (2×) and 112 and 136 and the Animal weight (Group 2 (SCV-07 10 μg/kg, day −1 to day 20), day 26) was 117 and 151 and 140 and 126 and 109 and 129 and 114 and 116 and 115 and 137. The Animal weight (Group 2 (SCV-07 10 μg/kg, day −1 to day 20), day 27) was 117 and 152 and 145 and 127 and 110 and 128 and 114 (2×) and 113 and 138, the Animal weight (Group 2 (SCV-07 10 μg/kg, day −1 to day 20), day 28) was 119 and 156 and 146 and 130 and 113 and 132 and 117 and 116 and 115 and 143 and the Animal weight (Group 2 (SCV-07 10 μg/kg, day −1 to day 20), day −1) was 74 and 80 and 91 and 92. For the same molecule, the Animal weight (Group 3 (SCV-07 100 μg/kg, day −1 to day 20), day 0) was 84 and 80 and 86 and 102 and 76 and 91 and 103 and 96 and 82 and 78, the Animal weight (Group 3 (SCV-07 100 μg/kg, day −1 to day 20), day 1) was 87 and 75 and 83 and 99 and 73 and 88 and 102 and 91 and 84 and 74 and the Animal weight (Group 3 (SCV-07 100 μg/kg, day −1 to day 20), day 2) was 90 (3×) and 77 and 86 and 102 and 76 (2×) and 100 and 87. For the same molecule, the Animal weight (Group 3 (SCV-07 100 μg/kg, day −1 to day 20), day 3) was 94 and 81 and 88 and 106 and 82 and 91 (2×) and 108 and 101 and 78, the Animal weight (Group 3 (SCV-07 100 μg/kg, day −1 to day 20), day 4) was 98 and 84 and 91 (2×) and 109 and 83 and 92 and 110 and 114 and 79 and the Animal weight (Group 3 (SCV-07 100 μg/kg, day −1 to day 20), day 5) was 99 and 86 and 93 and 113 and 84 and 95 and 115 and 105 and 94 and 81. For the same molecule, the Animal weight (Group 3 (SCV-07 100 μg/kg, day −1 to day 20), day 6) was 98 and 88 and 96 and 112 and 84 and 95 and 118 and 106 and 94 and 83, the Animal weight (Group 3 (SCV-07 100 μg/kg, day −1 to day 20), day 7) was 100 and 87 (2×) and 95 and 116 and 96 and 119 and 107 and 97 and 86 and the Animal weight (Group 3 (SCV-07 100 μg/kg, day −1 to day 20), day 8) was 103 and 90 (2×) and 98 (3×) and 118 and 120 and 108 and 88. For the same molecule, the Animal weight (Group 3 (SCV-07 100 μg/kg, day −1 to day 20), day 9) was 106 and 91 and 96 and 118 and 89 and 98 and 120 and 111 and 97 and 88, the Animal weight (Group 3 (SCV-07 100 μg/kg, day −1 to day 20), day 10) was 111 and 95 (2×) and 101 and 123 and 100 and 124 and 113 and 103 and 92 and the Animal weight (Group 3 (SCV-07 100 μg/kg, day −1 to day 20), day 11) was 109 and 95 and 100 (2×) and 123 and 94 (2×) and 124 and 114 and 101. For the same molecule, the Animal weight (Group 3 (SCV-07 100 μg/kg, day −1 to day 20), day 12) was 111 and 98 and 102 (2×) and 126 and 92 and 101 and 127 and 117 and 93, the Animal weight (Group 3 (SCV-07 100 μg/kg, day −1 to day 20), day 13) was 111 and 96 and 102 (2×) and 127 and 92 and 100 and 125 and 116 and 94 and the Animal weight (Group 3 (SCV-07 100 μg/kg, day −1 to day 20), day 14) was 110 and 97 and 103 and 130 and 95 and 100 and 128 and 116 and 101 and 94.
